Measurements: PubChem BioAssay AID1347426 (Functional Genomics Laboratory (NCATS/FGL), 2020)
Screen size: about 31,000 sequences; about 1,400 (4.5%) were called active.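 Rule for the calls: active = median seed-adjusted z-score above 1 or below -1; inactive = the rest.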 The list shows a part of the results.

Assay: Novel Modifiers of Survival Motor Neuron (SMN) Protein: Gene Identification via Genome-wide siRNA Screen;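 note: luminescence tracks full-length SMN protein made from the SMN2 reporter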
Details: HEK293T SMN2-luciferase reporter, siRNA knockdown, 72 h; actives lie on both sides
How it was run: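 Steps: spot 1 pmol siRNA, add Lipofectamine RNAiMax in serum-free DMEM, seed HEK293T SMN2–luciferase reporter cells; incubate 72 h at 37 °C; add ONE-Glo; normalize luminescence to control siRNA, log10, MAD. Candidates: |MAD| > 1.0.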

Question: Which median seed-adjusted z-score does the source give for GCAGAAAGGUCUGAACAGATT against SLC22A7 here?
Answer: inactive: -0.387

Question: For CAGGGACAUUUGAAGUGCATT against ILF2, which median seed-adjusted z-score is on record?
Answer: inactive: -0.19

Question: For GGAUCCUGCUCAAUAAUGATT against GGTLC1, which median seed-adjusted z-score is on record?
Answer: inactive: -0.298

Question: For GAGCAAUUGAUACCCAAAATT against PFKP, which median seed-adjusted z-score is on record?
Answer: inactive: -0.352

Question: For GAAUUGAACCAAGUUUGUATT against BACE2, which median seed-adjusted z-score is on record?
Answer: inactive: 0.0853

Question: Which median seed-adjusted z-score does the source give for GCAGAGUACCGGAACAAUUTT against KLKB1 here?
Answer: inactive: -0.256

Question: With GGACGGGAGUUUAAAAUUATT against APIP as the sequence, how does the median seed-adjusted z-score read?
Answer: inactive: -0.0945

Question: With CACUUACGGUGUGAAAGGATT against SOX5 as the sequence, how does the median seed-adjusted z-score read?
Answer: inactive: 0.123

Question: With CAACCUUAGAGAGAGGAAATT against KCNE4 as the sequence, how does the median seed-adjusted z-score read?
Answer: inactive: 0.0795

Question: Which median seed-adjusted z-score does the source give for GGUUGUCAUUAACAACAGUTT against DLST here?
Answer: active: 1.16

Question: For AAAUGUUCACUGCAGGUAUTT against ECH1, which median seed-adjusted z-score is on record?
Answer: inactive: 0.0348

Question: With GCUUCUAAUAUGUACCUGUTT against GSX1 as the sequence, how does the median seed-adjusted z-score read?
Answer: inactive: 0.677

Question: Which median seed-adjusted z-score does the source give for GGGUCAAGAGCAUAAGGAUTT against PROK2 here?
Answer: inactive: -0.00826

Question: With CAACUGGAAAAUUACGUAATT against POLB as the sequence, how does the median seed-adjusted z-score read?
Answer: inactive: 0.376

Question: With GUGUCGCUGUGGUAUUAGATT against CNOT6L as the sequence, how does the median seed-adjusted z-score read?
Answer: inactive: -0.0259

Question: For CAUAUGAUCCUGAAGCAUATT against ZNF639, which median seed-adjusted z-score is on record?
Answer: inactive: 0.182

Question: With CCAACGACCAAGUCACCAATT against IDH1 as the sequence, how does the median seed-adjusted z-score read?
Answer: inactive: 0.421

Question: Which median seed-adjusted z-score does the source give for GCUACUAAAAGAUCAAGUUTT against EXOSC9 here?
Answer: inactive: -0.00796

Question: Which median seed-adjusted z-score does the source give for GGUCAUGAUUGCUAUCCUUTT against TAAR9 here?
Answer: active: -1.07

Question: Which median seed-adjusted z-score does the source give for CAUUGGUUUUGAUGAGUAUTT against SNRPE here?
Answer: active: -2.77

Question: With GGAUUCAGGCAAUACUGAUTT against HMGCS2 as the sequence, how does the median seed-adjusted z-score read?
Answer: inactive: -0.465

Question: For CAGGCUUUAUGAUCUAUAUTT against COQ5, which median seed-adjusted z-score is on record?
Answer: inactive: -0.0292

Question: Which median seed-adjusted z-score does the source give for GGAUCGUGUUUAUGGUGAATT against DPM1 here?
Answer: inactive: -0.214

Question: For GGAAAGUACAUGUCUUCUATT against TNFRSF11A, which median seed-adjusted z-score is on record?
Answer: inactive: -0.0833

Question: For GUACCGGCAUGUUAUGUUATT against CKS2, which median seed-adjusted z-score is on record?
Answer: inactive: 0.0907

Question: For GAUCCUAUCGUAGACAUGATT against ZNF440, which median seed-adjusted z-score is on record?
Answer: inactive: 0.208

Question: For GGCUAGUUACAAUUCUUGATT against XRCC2, which median seed-adjusted z-score is on record?
Answer: inactive: 0

Question: With GAGAGAUACUCGCAGGCAATT against STX10 as the sequence, how does the median seed-adjusted z-score read?
Answer: inactive: 0.772

Question: Which median seed-adjusted z-score does the source give for CGUGGAUUCUUACGGAAGATT against CIT here?
Answer: inactive: -0.0585

Question: Which median seed-adjusted z-score does the source give for GGAAUGCAUGGAAAACUUUTT against A4GNT here?
Answer: inactive: 0.213

Question: For GCACAAUAUAGGCUAAUGATT against TEKT1, which median seed-adjusted z-score is on record?
Answer: inactive: 0.222

Question: For CCAGCGUACUCCAAAGAUUTT against B2M, which median seed-adjusted z-score is on record?
Answer: inactive: -0.367

Question: Which median seed-adjusted z-score does the source give for CCUGCGCCUGUAUAACUAUTT against AURKC here?
Answer: inactive: -0.0275

Question: With GUUCUUGUCUAAGACAUGATT against ZNF799 as the sequence, how does the median seed-adjusted z-score read?
Answer: active: -1.02

Question: Which median seed-adjusted z-score does the source give for GGUUUAAUAAGCUAGCAGATT against CDH10 here?
Answer: inactive: 0

Question: Which median seed-adjusted z-score does the source give for GACUGUUAUUGGUGAGAGATT against CYP19A1 here?
Answer: inactive: -0.321

Question: With GUGGAAUUAUUAAGGUGAATT against SPINK5L2 as the sequence, how does the median seed-adjusted z-score read?
Answer: inactive: 0.482

Question: For CCCUUUUCGUGGUCUAUGATT against LCMT2, which median seed-adjusted z-score is on record?
Answer: inactive: -0.0205

Question: With CCAUCGUCAUGGUUACCAATT against PTPRA as the sequence, how does the median seed-adjusted z-score read?
Answer: inactive: -0.438

Question: With GGACCAAGUUAGAACCGGATT against SETX as the sequence, how does the median seed-adjusted z-score read?
Answer: inactive: -0.709

Question: With CAUAGUCCUUGGACAUGUATT against TDRD9 as the sequence, how does the median seed-adjusted z-score read?
Answer: inactive: 0.0754

Question: With GAUAGAAUGGUAAACAGCATT against PDHA2 as the sequence, how does the median seed-adjusted z-score read?
Answer: inactive: 0.118

Question: For CGAUAGAACGAAUACCCUATT against ARID5B, which median seed-adjusted z-score is on record?
Answer: inactive: 0

Question: With AAACGACAACUGUUAAAAATT against CCNA1 as the sequence, how does the median seed-adjusted z-score read?
Answer: inactive: -0.203

Question: For GGACAUCGCCUUUCUCUAUTT against GJB5, which median seed-adjusted z-score is on record?
Answer: inactive: 0.338

Question: For GGAUCUUCACGGACAGCUATT against ADCYAP1, which median seed-adjusted z-score is on record?
Answer: inactive: 0.229

Question: With CUCACAUAAUCAUAAUAGATT against ZNF41 as the sequence, how does the median seed-adjusted z-score read?
Answer: inactive: 0.342

Question: For CUGUCCAUAGUGUCAUUAATT against GALNT1, which median seed-adjusted z-score is on record?
Answer: inactive: -0.164

Question: With GGAAUAUCUGGAACCGUGATT against KLRF1 as the sequence, how does the median seed-adjusted z-score read?
Answer: inactive: 0.00941

Question: With CGUUGUCACUGAGAUCACATT against AVIL as the sequence, how does the median seed-adjusted z-score read?
Answer: inactive: -0.127

Question: With CAUUCACUUUUACUGCUUUTT against PLOD1 as the sequence, how does the median seed-adjusted z-score read?
Answer: inactive: 0.481

Question: For GGCGGAUUUUUCAAACCCATT against LRRC52, which median seed-adjusted z-score is on record?
Answer: inactive: 0.118

Question: With CCAUCUUCACUGACGAGCATT against GSC as the sequence, how does the median seed-adjusted z-score read?
Answer: inactive: 0.17

Question: For GAGCUGAAAGAGUACGCAATT against AP1B1, which median seed-adjusted z-score is on record?
Answer: inactive: -0.161
